The series in a line: general procedure: Fmoc solid-phase peptide synthesis; Rink Amide-MBHA Resin; TBTU/HOBt/NMM. As to conditions: whole synthesis, scale of the general procedure 1 g resin.

For “AC-Arg-Ala-Asp-Ala-Arg-Ala-Asp-Ala-Arg-Ala-Asp-Ala-Arg-Ala-Asp-Ala- amide”, the difficulty met entry is “repeated feeding is usually required, hence the yield reduces, also resulting in complex by-products”.

The values are drawn from patent US20230310702A1 (Success Bio-Tech Co., Ltd., priority 2020, published 2023).
